This is an account of results in ChEMBL document CHEMBL4665641, “Lead optimization and efficacy evaluation of quinazoline-based BET family inhibitors for potential treatment of cancer and inflammatory diseases” (Bioorg Med Chem Lett, 2019).

Common to all, as to assay type: functional
Assay [1] deals with Kasumi 1. Kind of assay: Antitumor activity against human Kasumi-1 cells xenografted in CB17 SCID mouse assessed as inhibition of tumor growth at 10 mg/kg, po QD for 29 days. The conditions noted are these: Kasumi 1, po, 696 h, time 29 day, read-out: TGI.
Assay [2] concerns Kasumi 1. Kind of assay: Antitumor activity against human Kasumi-1 cells xenografted in CB17 SCID mouse assessed as inhibition of tumor growth at 10 mg/kg, po QD for 25 days. As to conditions: Kasumi 1, po, 600 h, time 25 day, read-out: TGI.
In assay [3] the test system is Kasumi 1. Kind of assay: Antitumor activity against human Kasumi-1 cells xenografted in CB17 SCID mouse assessed as inhibition of tumor growth at 40 mg/kg, po QD for 25 days. The conditions noted are these: Kasumi 1, po, 600 h, time 25 day, read-out: TGI.

For the molecule `CCNC(=O)C[C@@H]1N=C(c2ccc(Cl)cc2)c2cc(OC)ccc2-n2c(C)nnc21` [MOLIBRESIB], the inhibition in vivo at 10 mg/kg in the assay with Kasumi 1 [1] turned out to be 85.6%; in the assay with Kasumi 1 [2] it was 79.7%. Moreover, the inhibition in vivo at 40 mg/kg with Kasumi 1 [3] is 97.4%.
